Results as given in US20080199473A1 (CLEVELAND CLINIC FOUNDATION, published 2008).
Results are given in words; binding and its absence hold for the method and conditions named. Binding seen in cells or lysates may run through a third protein. Some binding calls cover weakened binding; strength is not graded here.

Sequences of proteins named here, by UniProt entry; tags and fusion partners are left off. A change or cut given only in a name is not applied to a line headed by its entry. Residues count along the entry.
UniProt O43508: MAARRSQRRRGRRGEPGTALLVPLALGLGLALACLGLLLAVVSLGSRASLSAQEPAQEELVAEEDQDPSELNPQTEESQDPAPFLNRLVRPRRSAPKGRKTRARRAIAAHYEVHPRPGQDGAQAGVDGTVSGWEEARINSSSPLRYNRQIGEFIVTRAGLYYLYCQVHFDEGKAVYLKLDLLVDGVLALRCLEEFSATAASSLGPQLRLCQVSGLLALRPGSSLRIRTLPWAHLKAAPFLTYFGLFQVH
GST-TWEAK protein: residues 136-249 of O43508

Assays:
GST-TWEAK protein [1] = molecular target: GST-TWEAK protein (UniProt O43508); test: GST pull-down
[2] = molecular target: TWEAK (endogenous, in HVSMC protein extract) (UniProt O43508); test: co-immunoprecipitation
GST-TWEAK protein [3] = molecular target: GST-TWEAK protein (UniProt O43508); test: GST pull-down, 35S-labelled VG5Q
[4] = molecular target: TWEAK (endogenous, in HVSMC protein extract) (UniProt O43508); test: co-immunoprecipitation, Western blot
[5] = molecular target: TWEAK (endogenous, in HVSMC protein extract) (UniProt O43508); test: co-immunoprecipitation from HVSMC extract, Western blot with goat anti-TWEAK

Measured: binding

B1: human VG5Q protein (protein)
chain: MASEAPSPPRSPPPPTSPEPELAQLRRKVEKLERELRSCKRQVREIEKLLHHTERLYQNAESNNQELRTQVEELSKILQRGRNEDNKKSDVEVQTENHAPWSISDYFYQTYYNDVSLPNKVTELSDQQDQAIETSILNSKDHLQVENDAYPGTDRTENVKYRQVDHFASNSQEPASALATEDTSLEGSSLAESLRAAAEAAVSQTGFSYDENTGLYFDHSTGFYYDSENQLYYDPSTGIYYYCDVESGRYQFHSRVDLQPYPTSSTKQSKDKKLKKKRKDPDSSATNEEKDLNSEDQKAFSVEHTSCNEEENFANMKKKAKIGIHHKNSPPKVTVPTSGNTIESPLHENISNSTSFKDEKIMETDSEPEEGEITDSQTEDSYDEAITSEGNVTAEDSEDEDEDKIWPPCIRVIVIRSPVLQIGSLFIITAVNPATIGREKDMEHTLRIPEVGVSKFHAEIYFDHDLQSYVLVDQGSQNGTIVNGKQILQPKTKCDPYVLEHGDEVKIGETVLSFHIHPGSDTCDGCEPGQVRAHLRLDKKDESFVGPTLSKEEKELERRKELKKIRVKYGLQNTEYEDEKTLKNPKYKDRAGKRREQVGSEGTFQRDDAPASVHSEITDSNKGRKMLEKMGWKKGEGLGKDGGGMKTPIQLQLRRTHAGLGTGKPSSFEDVHLLQNKNKKNWDKARERFTENFPETKPQKDDPGTMPWVKGTLE
modifications: 35S label in the GST pull-down (in-vitro-translated)
binds: all assays above
